Results are given in words; binding and its absence hold for the method and conditions named. Some binding calls cover weakened binding; strength is not graded here.

Sequences of proteins named here, by UniProt entry; tags and fusion partners are left off. A change or cut given only in a name is not applied to a line headed by its entry.
UniProt Q9BZL4: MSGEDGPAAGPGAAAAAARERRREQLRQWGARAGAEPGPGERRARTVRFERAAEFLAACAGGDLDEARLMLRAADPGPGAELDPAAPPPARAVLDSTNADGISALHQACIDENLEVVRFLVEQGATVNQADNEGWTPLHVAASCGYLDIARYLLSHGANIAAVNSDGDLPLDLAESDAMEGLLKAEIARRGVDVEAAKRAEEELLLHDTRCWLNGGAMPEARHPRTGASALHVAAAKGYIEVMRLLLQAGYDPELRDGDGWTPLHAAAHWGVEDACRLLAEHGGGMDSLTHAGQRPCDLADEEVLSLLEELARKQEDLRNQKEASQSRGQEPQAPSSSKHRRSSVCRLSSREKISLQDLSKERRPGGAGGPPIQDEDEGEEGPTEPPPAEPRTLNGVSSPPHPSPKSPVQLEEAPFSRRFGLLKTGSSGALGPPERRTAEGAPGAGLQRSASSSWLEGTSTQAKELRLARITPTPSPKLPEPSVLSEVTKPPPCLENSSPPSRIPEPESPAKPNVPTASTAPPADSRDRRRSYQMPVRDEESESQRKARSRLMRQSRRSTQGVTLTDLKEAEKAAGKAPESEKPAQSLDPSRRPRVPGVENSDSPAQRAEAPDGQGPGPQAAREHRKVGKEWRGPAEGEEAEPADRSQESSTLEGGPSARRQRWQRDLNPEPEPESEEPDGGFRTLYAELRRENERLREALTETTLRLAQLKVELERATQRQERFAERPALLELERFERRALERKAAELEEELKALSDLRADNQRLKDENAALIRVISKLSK
UniProt P35609: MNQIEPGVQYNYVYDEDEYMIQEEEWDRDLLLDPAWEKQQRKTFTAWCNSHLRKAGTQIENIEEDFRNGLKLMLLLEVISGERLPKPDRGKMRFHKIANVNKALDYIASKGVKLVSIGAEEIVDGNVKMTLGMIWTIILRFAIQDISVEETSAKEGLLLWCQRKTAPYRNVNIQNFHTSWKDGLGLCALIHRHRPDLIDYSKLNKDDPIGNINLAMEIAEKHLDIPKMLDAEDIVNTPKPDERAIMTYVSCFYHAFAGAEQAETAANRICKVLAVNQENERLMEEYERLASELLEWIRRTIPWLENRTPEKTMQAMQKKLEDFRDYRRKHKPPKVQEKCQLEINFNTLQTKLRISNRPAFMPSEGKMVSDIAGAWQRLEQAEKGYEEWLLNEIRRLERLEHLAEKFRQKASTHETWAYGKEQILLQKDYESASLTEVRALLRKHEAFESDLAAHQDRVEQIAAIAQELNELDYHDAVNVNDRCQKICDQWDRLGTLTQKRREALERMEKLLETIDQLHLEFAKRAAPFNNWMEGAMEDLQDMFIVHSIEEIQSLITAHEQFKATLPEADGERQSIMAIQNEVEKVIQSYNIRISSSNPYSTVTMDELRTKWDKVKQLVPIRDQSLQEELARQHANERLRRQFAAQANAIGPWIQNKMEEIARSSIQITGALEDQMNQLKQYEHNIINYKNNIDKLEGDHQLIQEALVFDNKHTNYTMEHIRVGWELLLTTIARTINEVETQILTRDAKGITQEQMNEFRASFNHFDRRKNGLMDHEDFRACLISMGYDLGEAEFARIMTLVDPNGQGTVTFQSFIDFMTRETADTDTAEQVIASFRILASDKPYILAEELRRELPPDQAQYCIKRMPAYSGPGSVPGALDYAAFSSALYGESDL

This passage reports binding results from patent US20040161746A1 (published 2004).

Assay [1] addresses T1, B1153 protein (human, UniProt Q96JG6 1-964).
T1 construct: also called indicator protein
T1 sequence: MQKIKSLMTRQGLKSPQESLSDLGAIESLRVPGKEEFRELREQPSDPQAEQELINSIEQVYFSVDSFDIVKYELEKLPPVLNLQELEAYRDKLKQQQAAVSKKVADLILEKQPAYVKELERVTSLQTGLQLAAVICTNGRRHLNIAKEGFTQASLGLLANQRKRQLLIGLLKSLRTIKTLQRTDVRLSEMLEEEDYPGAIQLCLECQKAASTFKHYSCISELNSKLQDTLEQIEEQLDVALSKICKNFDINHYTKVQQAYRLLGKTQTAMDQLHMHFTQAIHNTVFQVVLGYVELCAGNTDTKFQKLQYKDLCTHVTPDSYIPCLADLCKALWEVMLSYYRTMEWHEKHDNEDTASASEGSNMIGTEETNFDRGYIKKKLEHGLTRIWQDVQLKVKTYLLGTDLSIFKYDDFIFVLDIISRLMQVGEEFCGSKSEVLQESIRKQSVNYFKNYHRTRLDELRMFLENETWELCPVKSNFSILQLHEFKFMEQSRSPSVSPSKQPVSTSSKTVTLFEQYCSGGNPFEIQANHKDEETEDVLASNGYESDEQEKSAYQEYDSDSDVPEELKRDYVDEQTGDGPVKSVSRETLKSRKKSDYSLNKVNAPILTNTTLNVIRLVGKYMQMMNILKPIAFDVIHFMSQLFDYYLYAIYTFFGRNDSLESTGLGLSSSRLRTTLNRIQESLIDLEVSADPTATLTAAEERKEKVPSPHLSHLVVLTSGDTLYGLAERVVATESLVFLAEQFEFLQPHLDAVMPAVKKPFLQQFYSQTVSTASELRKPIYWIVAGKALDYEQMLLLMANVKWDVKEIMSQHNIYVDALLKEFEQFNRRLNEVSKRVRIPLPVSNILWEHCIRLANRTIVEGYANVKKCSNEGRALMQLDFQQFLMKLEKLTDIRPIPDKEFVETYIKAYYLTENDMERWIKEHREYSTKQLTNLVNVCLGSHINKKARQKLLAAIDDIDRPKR
The assay can be described thus: yeast two-hybrid (PROQUEST, GAL4), B1153 full-length ORF as bait, Human Brain cDNA library prey. The protocol: By the PROQUEST™ TWO-Hybrid system (Invitrogen) utilizing the in vivo gene expression system of GAL4 series yeast, a search for a protein that interacts with the protein of this invention was carried out. Screening for a protein that interacts with B1153 was conducted for the Human Brain cDNA library with the full-length ORF region (86 bp to 2977 bp) of the B1153 gene as a bait. In this case, protocol according to the manual attached to the system was used.

The target in assay [2] is T1, B1153 protein. The experiment in a line: yeast two-hybrid; only a partial prey clone was tested.
Assay [3] deals with T1, B1153 protein. The experiment in a line: yeast two-hybrid; only partial prey clones were tested.
Assay [4] addresses T1, B1153 protein. The experiment in a line: yeast two-hybrid (PROQUEST, GAL4), B1153 full-length ORF as bait.

For the substance “myosin binding subunit 85 partial sequence, Prey-No. 7 (428 aa to 657 aa) (from UniProt Q9BZL4 428-657)”, in assay [1], the binding entry was “binds”. In the case of “skeletal muscle alpha 2 actinin (from UniProt P35609 1-894)”, the binding result in assay [2] was “binds”. For “myosin binding subunit 85 (from UniProt Q9BZL4 1-782)”, the binding result in assay [3] is “binds”. As for “skeletal muscle alpha 2 actinin partial sequence, Prey-No. 10 (309 aa to 528 aa) (from UniProt P35609 309-528)”, the binding result in assay [4] and in assay [1] was “binds” in each case.
